Data reported in US11649235B2, “Pan-tropic entry inhibitors” (Emory University, priority 2018, dated 2023).

Assay: Mouse liver microsomes assay
Assay type: in vitro ADME
Conditions: CD-1, mouse, 3 μM, pH 7.4
Method: Mouse Liver Microsomes: […] […] Controls were processed and analyzed like test compounds. […] The relative percent remaining was calculated using: Relative % remaining=[…]=0*100. […] Metabolism data averaged duplicates.

Relative % remaining, mouse liver microsomes (10 min): 64 ± 3.1% | Relative % remaining, mouse liver microsomes (0.5 h): 25 ± 4.1%
Compound: CN(C)CCOC(c1ccccc1)c1ccccc1 [Diphenhydramine, diphenhydramine, reference compound]
